In series [1] the target is T1, FOXL2-DBD (Homo sapiens) (UniProt P58012).
T1 sequence (looked up): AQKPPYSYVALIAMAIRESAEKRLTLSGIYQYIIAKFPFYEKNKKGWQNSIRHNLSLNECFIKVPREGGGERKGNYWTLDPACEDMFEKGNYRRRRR
Put plainly: ITC. Particulars: binding greatly weakened; ITC: 20 mM HEPES pH 7.5, 150 mM NaCl, 10 mM MgCl2, 298 K; recombinant protein; residues 52-148; protein details: GST tag cleaved by TEV.

Amino acid sequences for entries named in this document (tags omitted). A change or cut given only in a name is not applied to a line headed by its entry.
UniProt P55317: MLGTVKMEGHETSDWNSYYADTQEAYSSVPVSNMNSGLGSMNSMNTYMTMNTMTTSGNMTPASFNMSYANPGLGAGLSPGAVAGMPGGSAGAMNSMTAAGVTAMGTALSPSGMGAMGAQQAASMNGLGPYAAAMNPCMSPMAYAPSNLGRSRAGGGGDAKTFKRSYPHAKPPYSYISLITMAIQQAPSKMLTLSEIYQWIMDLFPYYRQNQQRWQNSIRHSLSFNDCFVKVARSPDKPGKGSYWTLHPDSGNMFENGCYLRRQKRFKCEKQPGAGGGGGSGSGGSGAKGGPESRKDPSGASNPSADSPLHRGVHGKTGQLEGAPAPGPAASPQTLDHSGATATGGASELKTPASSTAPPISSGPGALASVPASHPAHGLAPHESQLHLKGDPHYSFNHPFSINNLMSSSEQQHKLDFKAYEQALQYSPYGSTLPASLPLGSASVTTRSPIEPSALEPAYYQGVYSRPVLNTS

Series [2] deals with T1, FOXL2-DBD (Homo sapiens). Put plainly: EMSA. Particulars: EMSA: 2.5 uM DNA, 20 mM HEPES pH 7.5, 50 mM KCl, 10 mM MgCl2, 1 mM DTT, 10% glycerol, on ice 30 min, FOXA1 EMSA: 20 mM Tris-HCl pH 8.0, 0.1 mg/ml BSA, 50 uM ZnCl2, recombinant protein, residues 52-148, protein details: GST tag cleaved by TEV. In general terms: In EMSA bound probe runs differently from free probe, usually more slowly.

For the next series, the target named is FOXA1-DBD (UniProt P55317). Put plainly: EMSA. Particulars: 50 mM EDTA (Mg2+ depleted), dimer shift significantly reduced; EMSA: 2.5 uM DNA, 20 mM HEPES pH 7.5, 50 mM KCl, 10 mM MgCl2, 1 mM DTT, 10% glycerol, on ice 30 min; FOXA1 EMSA: 20 mM Tris-HCl pH 8.0, 0.1 mg/ml BSA, 50 uM ZnCl2; recombinant protein; residues 168-264; protein details: GST tag cleaved by TEV; label: 5' Cy3 on strand 1 (legends say Cy5).

The target of a further series is T2, FOXA1-DBD S174A/S177A (UniProt P55317).
T2 sequence (looked up): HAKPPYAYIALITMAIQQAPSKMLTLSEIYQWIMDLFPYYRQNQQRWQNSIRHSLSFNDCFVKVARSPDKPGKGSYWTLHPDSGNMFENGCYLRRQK
The series can be described thus: EMSA. Particulars: significantly compromised; EMSA: 2.5 uM DNA, 20 mM HEPES pH 7.5, 50 mM KCl, 10 mM MgCl2, 1 mM DTT, 10% glycerol, on ice 30 min; FOXA1 EMSA: 20 mM Tris-HCl pH 8.0, 0.1 mg/ml BSA, 50 uM ZnCl2; recombinant protein; residues 168-264; label: 5' Cy3 on strand 1 (legends say Cy5).

A further series deals with T3, FOXA1-DBD Y173A/S177A (UniProt P55317).
T3 sequence (looked up): T2 sequence (looked up) with Y6A, A7S
The series can be described thus: EMSA. Particulars: significantly compromised; EMSA: 2.5 uM DNA, 20 mM HEPES pH 7.5, 50 mM KCl, 10 mM MgCl2, 1 mM DTT, 10% glycerol, on ice 30 min; FOXA1 EMSA: 20 mM Tris-HCl pH 8.0, 0.1 mg/ml BSA, 50 uM ZnCl2; recombinant protein; residues 168-264; label: 5' Cy3 on strand 1 (legends say Cy5).

Numbering of substitutions follows the chain as printed. A weaker result is weaker than the reference pair of the same experiment. For part of these data: Protein sequences can lack the tags named with them. For part of these data: The exact form of at least one protein or probe is not confirmed.

Regarding “AAACCCCCCCTATCGA (double strand) [p53 mut1 16 bp (ITC)]”, in the series with FOXL2-DBD (Homo sapiens) [1], the binding result is “binds more weakly”.

On to “TCAAAAAACCCCCCCTATCGAGCTCT (double strand) [p53 mut1 26 bp]”, for which the binding result with FOXL2-DBD (Homo sapiens) [2] (weak monomer shift only, dimer lost, label: 5' Cy3 on strand 1 (legend says Cy5)) is “binds more weakly”.

Take “TCAAAAAATATTTATCTATCGAGCTCT (double strand) [p53 S1 (1 bp spacer)]”: in the series with FOXL2-DBD (Homo sapiens) [2] (dimer shift significantly reduced, label: 5' Cy3 on strand 1), the binding result is listed as “binds more weakly”.

“TCAAAAAATATTTATTATCGAGCTCT (double strand) [p53-DNA 26 bp (S0)]”: the binding result with FOXA1-DBD, with FOXA1-DBD S174A/S177A and in the series with FOXA1-DBD Y173A/S177A was “binds more weakly” each time.

Values taken from publication PMC9410875.
